{
  "source": "patent US11219628B2",
  "about": "“Replacement of cytotoxic preconditioning before cellular immunotherapy” (priority 2017, dated 2022)",
  "key": {"[1]": {"tested_on": "germinal centers in spleen", "assay": "Mouse spleen germinal centers by FITC-PNA immunofluorescence", "conditions": "3, 6, 9 or 12 mg/kg HED; 48 hours before spleen harvest"}, "[2]": {"tested_on": "NK cell binding in spleen", "assay": "Binding of labeled NK cells to spleen marginal zones after Dexamethasone pretreatment", "type": "in vivo, C57B1/6 male mice", "conditions": "oral HED 12 mg/kg on day −2"}, "[3]": {"tested_on": "blood lymphocyte populations, HSCs", "conditions": "48 hours"}, "[4]": {"tested_on": "blood lymphocyte populations, neutrophils, RBCs, platelets, body weight"}, "[5]": {"tested_on": "bone marrow mesenchymal stem cells", "assay": "Human ileac crest bone marrow MSC number by CFU-F", "conditions": "oral 3 mg/kg dexamethasone base, 48 hours, two patients"}, "[6]": {"tested_on": "GC and marginal zone of spleen", "assay": "Rat spleen germinal center (BCL-6) and marginal zone (H&E) inhibition", "type": "in vivo", "conditions": "IV or PO 20, 40 or 80 mg/kg (HED 3.23, 6.45, 12.9 mg/kg); 48 hours"}, "[7]": {"tested_on": "bone marrow mesenchymal stem cells", "assay": "Horse sternal bone marrow MSC number and trilineage differentiation", "conditions": "6 mg/kg HED; one hour IV infusion; 48 hours"}, "[8]": {"tested_on": "peripheral blood T and B lymphocytes", "conditions": "single oral 0.24 mg/kg dose; cited from earlier work"}, "[9]": {"tested_on": "blood lymphocyte populations, neutrophils, RBCs, platelets", "assay": "Mouse CBC and flow cytometry 48 hours after oral acute dexamethasone", "conditions": "PO HED 3, 6, 9 or 12 mg/kg"}, "MOPC315 cells": {"tested_on": "MOPC315 cells", "assay": "Immunocompetent mouse model of multiple myeloma: preconditioning before alloHSCT or NK cells", "conditions": "preconditioning before allogeneic NK cells"}, "[10]": {"tested_on": "blood lymphocytes, neutrophils, RBCs, platelets", "assay": "Rat complete blood counts 48 hours after acute dexamethasone", "conditions": "IV or PO 20 (3.2 HED), 40 (6.5 HED) or 80 (12.9 HED) mg/kg, all doses"}, "B lymphocytes": {"tested_on": "B lymphocytes", "assay": "Paper example: patients with autoimmune diseases treated with NTLA dexamethasone", "type": "in vivo, human", "conditions": "NTLA dexamethasone (as base) about 3 to about 12 mg/kg"}, "T cell binding in spleen": {"tested_on": "T cell binding in spleen", "assay": "Binding of labeled T cells to spleen germinal centers and marginal zones after Dexamethasone pretreatment", "type": "in vivo, C57B1/6 male mice", "conditions": "oral HED 12 mg/kg on day −2"}, "IL-2, IL-15, IL-6": {"tested_on": "IL-2, IL-15, IL-6", "type": "in vivo, human", "conditions": "acute oral dexamethasone base 3 mg/kg; 48 hours", "method": "(FIG. 12, FIG. 13, FIG. 14 and FIG. 15 show data from the same four human patients.)\nBlood was drawn before drug treatment and 48 hours post-treatment for CBC analysis and flow cytometry to determine lymphocyte and other blood cell populations. Serum was analyzed for cytokine levels. For one patient, pre-treatment CBCs were not drawn and thus normalized flow cytometry data is shown for only 3 patients."}, "[11]": {"tested_on": "spleen cellularity / ACT tumor killing", "conditions": "cited from earlier work"}, "[12]": {"tested_on": "multiple myeloma and other cancer cell lines", "assay": "Direct tumor killing by acute dexamethasone", "type": "in vivo", "conditions": "doses up to about 12 mg/kg HED", "description": "The desired in vivo effects of exemplary NTLAs would include reductions in germinal center and marginal zones in secondary lymphatics, direct tumor killing of some cancers particularly; multiple myeloma, renal cell carcinoma, leukemia and lymphoma, non-small cell lung cancer (NSCLC), prostate and breast cancer; depletion of all peripheral blood lymphocyte types, lack of lymphocyte redistribution to the BM or other organs, and elevation of plasma cytokines including IL-2, and/or IL-7, and/or IL-12, and/or IL-15 to levels preferably of 20 pg/ml or greater, among others."}},
  "note": "“Also recorded” adds a separate entry of the source. For at least one compound, name, drawing or mass did not settle the structure.",
  "data": [
    {"smiles": "C[C@@H]1C[C@H]2[C@@H]3CCC4=CC(=O)C=C[C@]4(C)[C@@]3(F)[C@@H](O)C[C@]2(C)[C@@]1(O)C(=O)CO", "note": "[Dexamethasone, dexamethasone]", "values": [
      {"measurement": "ACT binding niches in the mouse spleen (germinal center staining intensity)", "setting": "[1]", "value": "dose-dependently eliminates"},
      {"measurement": "NK cell total binding measured by fluorescence intensity", "setting": "[2]; 3 hours after NK cell injection, vs Placebo", "value": "dramatically reduced"},
      {"measurement": "spleen size compared to Placebo treated mice", "setting": "[2]; NK cell experiment", "value": "significantly smaller"},
      {"measurement": "patients who responded with lymphodepletion", "setting": "[3]; oral 3 mg/kg dexamethasone base, un-normalized flow cytometry data", "value": "2 of the 4"},
      {"measurement": "patients who depleted B lymphocytes", "setting": "[3]; oral 3 mg/kg", "value": "1 of 4"},
      {"measurement": "patients who depleted CD3 positive lymphocytes", "setting": "[3]; oral 3 mg/kg", "value": "2 of 4"},
      {"measurement": "patients who depleted CD4 positive lymphocytes", "setting": "[3]; oral 3 mg/kg", "value": "2 of 4"},
      {"measurement": "patients who depleted CD8 positive lymphocytes", "setting": "[3]; oral 3 mg/kg", "value": "2 of 4"},
      {"measurement": "patients who depleted NK cells", "setting": "[3]; oral 3 mg/kg", "value": "3 of 4"},
      {"measurement": "patients who depleted Tregs", "setting": "[3]; oral 3 mg/kg", "value": "1 of 4"},
      {"measurement": "patients with a lymphocytosis response in B lymphocytes", "setting": "[3]; oral 3 mg/kg", "value": "1 of 4"},
      {"measurement": "patients with a lymphocytosis response in CD3 lymphocytes", "setting": "[3]; oral 3 mg/kg", "value": "2 of 4"},
      {"measurement": "patients with a lymphocytosis response in CD4 lymphocytes", "setting": "[3]; oral 3 mg/kg", "value": "2 of 4"},
      {"measurement": "patients with a lymphocytosis response in CD8 lymphocytes", "setting": "[3]; oral 3 mg/kg", "value": "1 of 4"},
      {"measurement": "patients with a lymphocytosis response in NK cells", "setting": "[3]; oral 3 mg/kg", "value": "1 of 4"},
      {"measurement": "absolute lymphocytes depletion compared with CyFlu", "setting": "[4]; 12 mg/kg HED oral day −2", "value": "not depleted as dramatically as with CyFlu"},
      {"measurement": "lymphodepletion compared to standard 2 day Cy with 4 day Flu", "setting": "[4]; Dex 12 mg/kg HED oral day −2, combination: single Cy 166 mg/kg and Flu 10 mg/kg day −5 plus Dex day −2", "value": "comparable lymphodepletion profile"},
      {"measurement": "ileac crest bone marrow MSC number (CFU-F) vs 31 historical controls", "setting": "[5]", "value": "almost two fold; also recorded: about twice as high"},
      {"measurement": "ACT binding niches in the rat spleen (BCL-6 staining area, germinal center numbers)", "setting": "[6]", "value": "eliminates"},
      {"measurement": "ACT binding niches in the rat spleen (marginal zone widths)", "setting": "[6]", "value": "eliminates"},
      {"measurement": "sternal BM MSC stem cell number", "setting": "[7]", "value": "doubled"},
      {"measurement": "normal levels reached", "setting": "[8]", "value": "≤ 24", "unit": "h"},
      {"measurement": "recovery beginning", "setting": "[8]", "value": 12, "unit": "h"},
      {"measurement": "suppression of peripheral blood T and B lymphocytes", "setting": "[8]", "value": 80, "unit": "%"},
      {"measurement": "mouse B lymphocytes", "setting": "[9]", "value": "reduces"},
      {"measurement": "mouse CD3 positive lymphocytes", "setting": "[9]", "value": "reduces"},
      {"measurement": "mouse CD4 positive lymphocytes", "setting": "[9]", "value": "reduces"},
      {"measurement": "mouse CD8 positive lymphocytes", "setting": "[9]", "value": "reduces"},
      {"measurement": "mouse NK cells", "setting": "[9]", "value": "reduces"},
      {"measurement": "mouse Tregs", "setting": "[9]", "value": "reduces"},
      {"measurement": "mouse absolute lymphocyte numbers", "setting": "[9]", "value": "reduces"},
      {"measurement": "NK cell eradication of MOPC315 cells compared to standard CyFlu preconditioning", "setting": "MOPC315 cells", "value": "as effective"},
      {"measurement": "lymphocyte count compared to Placebo", "setting": "[10]", "value": "significantly reduced"},
      {"measurement": "lymphocyte count compared to Placebo", "setting": "[10]; listed as Dex", "value": "reduces"},
      {"measurement": "B lymphocyte numbers reduction", "setting": "B lymphocytes", "value": "greater than 90%"},
      {"measurement": "memory B cell populations reduction", "setting": "B lymphocytes", "value": "greater than 90%"},
      {"measurement": "T cell total binding measured by fluorescence intensity", "setting": "T cell binding in spleen; 3 hours after T cell injection, vs Placebo", "value": "dramatically reduced"},
      {"measurement": "spleen size compared to Placebo treated mice", "setting": "T cell binding in spleen; T cell experiment", "value": "significantly smaller"},
      {"measurement": "patients with elevated levels of IL-2", "setting": "IL-2, IL-15, IL-6", "value": "3 of 4"},
      {"measurement": "patients with elevated levels of IL-15", "setting": "IL-2, IL-15, IL-6", "value": "4 of 4"},
      {"measurement": "lymphodepletion compared to radiation", "setting": "[11]; intraperitoneal 10 mg/kg (HED 0.81 mg/kg) on day −6, −4, −2, vs 5Gy TBI", "value": "equivalent lymphodepletion"},
      {"measurement": "reduced spleen cellularity (lymphodepletion)", "setting": "[11]; intraperitoneal 10 mg/kg (HED 0.81 mg/kg) on day −6, −4, −2 before ACT", "value": 99, "unit": "%"},
      {"measurement": "enhancement of ACT tumor killing", "setting": "[11]; pretreatment 10 mg/kg (HED 0.81 mg/kg) on day −6, −4, −2 before ACT", "value": "did not enhance ACT tumor killing"},
      {"measurement": "direct tumor killing at higher doses", "setting": "[12]", "value": "maintained but not increased"}
    ]}
  ]
}
